Some of the results follow. Shown are side measurements of this screen, not its main read-out; they come without a call. Compounds called inactive in the main read-out are mostly missing here. Potencies come from curve fits of mixed quality, noted in brackets.
Assay: qHTS Assay for Lipid Storage Modulators in Drosophila S3 Cells;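 as to cell number change: cells counted by Cell Tracker Red CMTPX staining in the red channel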
Conditions: BODIPY lipid droplet fluorescence, 18-24 h; for cell number change: measured here: cell count max response, cells fed with added oleic acid
Outline: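 Laser-scanning cytometry quantifies lipid droplet accumulation (500–530 nm total intensity; droplet/cell object ratio) in oleic acid-fed (400 uM added) Drosophila S3 cells treated with a concentration series. 20 uM Triacsin C defined 100% inhibition.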

[1] = measured here: lipid fluorescence (Fed channel) AC50, cells fed with added oleic acid
[2] = measured here: cell number channel AC50, cells fed with added oleic acid

Structure (SMILES) | cell number change [%] | AC50 [1] | AC50 [2]
NC(=O)c1nsc(C(=O)N(c2cccc(F)c2)C(C(=O)NCc2ccccc2)c2ccc(O)cc2)c1N (stereo not drawn) | 19.2 | 0.517 µM [falling, single point] | 
Cc1nc(SCc2ccccc2C)n[nH]1 | 126 | 0.13 µM [rising, full curve, poor fit] | 25.9 µM [rising, single point]
COc1ccc(-c2nc(CS(=O)CC(=O)NCc3ccco3)c(C)o2)cc1 (stereo not drawn) | 31.5 | 14.6 µM [rising, partial curve] | 6.51 µM [rising, single point]
CCOc1ccc(NC(=O)N2CCN(c3nc4ccccc4s3)CC2)cc1 | -18.1 | 6.51 µM [falling, single point] | 0.146 µM [falling, single point]
Cc1ccc(N2CC3=C(C2=O)C(c2ccccc2)NC(=O)N3C)cc1 (stereo not drawn) | -1.93 |  | 
CCOCCn1c(CN2CCc3ccccc3C2)nc2c1c(=O)n(C)c(=O)n2C | -27.5 | 29.1 µM [falling, single point] | 
Cc1cccc2sc(NNC(=O)c3ccc(S(=O)(=O)N4CC(C)CC(C)C4)cc3)nc12 (stereo not drawn) | -19.1 | 29.1 µM [falling, single point] | 
O=C(O)CSCC(=O)N1CCc2c([nH]c3ccccc23)C1C(F)(F)F (stereo not drawn) | 13.3 | 25.9 µM [rising, single point] | 
COCC(O)CSc1nc(C)[nH]c1[N+](=O)[O-] (stereo not drawn) | -70.6 |  | 16.4 µM [falling, single point]
Cn1cccc1/C=C1\SC(=S)N(NC(=O)c2ccccc2O)C1=O | -48.3 | 7.31 µM [falling, partial curve] | 32.6 µM [falling, partial curve, poor fit]
Cc1nc(NC(=O)C23CCC(C)(C(=O)O2)C3(C)C)sc1C (stereo not drawn) | 16 |  | 
Fc1cc(F)cc(NC(=S)NN2CCOCC2)c1 | -32.7 | 13 µM [falling, partial curve, poor fit] | 32.6 µM [falling, single point]
Cc1cc(OC(=O)c2cc(Cl)nc3ccccc23)ccc1Cl | -51.5 |  | 20.6 µM [falling, single point]
CCOc1ccc(-c2cc(CCCC(=O)NCCc3ccccc3)no2)cc1 |  | 4.11 µM [rising, partial curve] | 2.31 µM [rising, partial curve]
COc1ccc(CCNC(=O)CN2C(=O)C3(OCCCO3)c3ccccc32)cc1OC | -11.7 | 29.1 µM [falling, single point] | 
COC(=O)C1=CN(Cc2ccc(OC)cc2)C=C(C(=O)OC)C1c1ccsc1 | -30.3 |  | 32.6 µM [falling, partial curve, poor fit]
CCCc1sc(N)nc1-c1ccc(C)cc1 | -46.5 | 6.51 µM [rising, single point] | 29.1 µM [falling, single point]
CCn1cc(C(=O)NCc2ccco2)c(=O)c2ccc(C)nc21 |  | 6.51 µM [rising, single point] | 1.3 µM [rising, partial curve]
COc1cc(OC)cc(C(=O)OC/C(O)=C(\C#N)c2nc3ccccc3[nH]2)c1 | -34.9 | 32.6 µM [falling, partial curve] | 16.4 µM [falling, partial curve]
O=C(CCCOc1ccc(Cl)cc1Cl)N/N=C\C1CCCCC1 | -20.4 | 2.91 µM [rising, single point] | 0.82 µM [rising, single point]
Clc1ccccc1-c1ncc(-c2ccccc2)o1 | -12.6 | 18.4 µM [falling, single point] | 
CCCN(CC(=O)Nc1ccccc1C)C(=O)c1ccc(N2CCCCCC2)c([N+](=O)[O-])c1 | -39.3 | 10 µM [falling, partial curve] | 10 µM [falling, partial curve]
CCc1ccccc1-n1c(SCC(=O)Nc2ccc3c(c2)OCCO3)nc2[nH]ncc2c1=O | -14.8 | 0.231 µM [rising, full curve] | 0.082 µM [falling, full curve, poor fit]
O=C1[C@H]2[C@H](ON3CCCC[C@H]23)C(=O)N1c1cccc(C(F)(F)F)c1 | -31.4 |  | 
CC12COC3(C(=O)Nc4ccc([N+](=O)[O-])cc4)CC1CCC32C (stereo not drawn) | -31.5 | 0.517 µM [falling, partial curve, poor fit] | 20.6 µM [falling, single point]
Cc1ccc(C)c(OCC(=O)NC(Cc2c[nH]c3ccccc23)C(=O)O)c1 (stereo not drawn) | 20.3 | 0.411 µM [falling, single point] | 
O=C(Cn1cnc2sc3c(c2c1=O)CCCC3)NCC(=O)Nc1ccc(F)cc1F | 18.2 | 23.1 µM [rising, partial curve] | 
CCCCS(=O)(=O)c1sc2nc3c(cc2c1N)CCCC3 | -19.6 | 4.11 µM [rising, partial curve] | 

Reprinted from the entries so far (two entries):
Structure (SMILES) | cell number change [%] | AC50 [1] | AC50 [2]
CCCN(CC(=O)Nc1ccccc1C)C(=O)c1ccc(N2CCCCCC2)c([N+](=O)[O-])c1 | -39.3 | 10 µM [falling, partial curve] | 10 µM [falling, partial curve]
CCc1ccccc1-n1c(SCC(=O)Nc2ccc3c(c2)OCCO3)nc2[nH]ncc2c1=O | -14.8 | 0.231 µM [rising, full curve] | 0.082 µM [falling, full curve, poor fit]

Continuation.

Structure (SMILES) | cell number change [%] | AC50 [1] | AC50 [2]
COc1ccc(-c2nc(CSCC(=O)NCc3ccc4c(c3)OCO4)c(C)o2)cc1OC | -15.6 |  | 
Cn1c(SCc2ccc(Cl)cc2)nc(C(F)(F)F)cc1=O | 0.636 | 29.1 µM [rising, partial curve, poor fit] | 
Cc1ccc(-n2c(SCC(=O)Nc3ccc4c(c3)OCO4)nnc2-c2ccoc2C)cc1 | 4.04 | 0.103 µM [rising, full curve] | 0.116 µM [rising, full curve, poor fit]
O=c1cc2c(nn1Cc1ccccc1Cl)-c1ccccc1CC2 | 9.06 | 7.31 µM [rising, partial curve] | 
Cc1ccc2nc(-c3ccc(NC(=O)CNC4CC4)cc3)sc2c1 | 28.2 | 18.4 µM [rising, single point] | 
Cc1onc(-c2ccccc2)c1C(=O)Nc1nncs1 | 1.26 |  | 
CCOc1ccc(-c2cn3ccccc3n2)cc1 | -39.8 | 29.1 µM [falling, partial curve, poor fit] | 5.8 µM [falling, full curve]
CC(=O)c1ccc(-n2nncc2-c2ccc([N+](=O)[O-])cc2)cc1 | 66.6 | 29.1 µM [rising, partial curve, poor fit] | 29.1 µM [rising, partial curve, poor fit]
O=C1CCCCC1Sc1nnc(Cc2cccs2)n1CCc1ccccc1 (stereo not drawn) | 32.1 | 8.2 µM [rising, partial curve, poor fit] | 0.206 µM [rising, partial curve]
CC(=O)c1c(C)[nH]c(C(=O)Nc2ccc(Cl)cc2)c1C | 10.8 | 0.082 µM [rising, partial curve, poor fit] | 
Cc1ccc(NC(=O)/C(C#N)=C/c2ccc(Sc3nc(C)cc(C)n3)o2)cc1 | 41.8 |  | 9.2 µM [rising, partial curve, poor fit]
CCC(C)(C)NC(=O)CN(C(=O)C(=O)Nc1ccc2c(c1)OCCO2)C1CC1 |  | 1.03 µM [falling, single point] | 
Cc1ccc(Nc2nc(-c3sc(NC(=O)c4ccccc4)nc3C)cs2)cc1 | -6.39 | 11.6 µM [rising, partial curve] | 
Cc1ccc(CNC(=O)c2cc3c(=O)n4ccccc4nc3n(Cc3ccco3)c2=N)cc1 | -12.2 | 0.164 µM [rising, full curve, poor fit] | 
COc1cccc(C(=O)O/N=C(\N)c2ccc(C)cc2)c1 |  | 0.58 µM [rising, single point] | 0.82 µM [rising, full curve, poor fit]
O=c1cc(CSc2nnc(-c3ccccc3)o2)c2ccccc2[nH]1 | -28.3 | 29.1 µM [falling, single point] | 
O=C(Nc1ccc(F)cc1)Nc1nnc(-c2ccco2)s1 | -21.9 | 16.4 µM [falling, partial curve] | 
CCc1ccc(O)c(CNCCNCc2cc(CC)ccc2O)c1 | -87.2 |  | 16.4 µM [falling, partial curve]
CC1CCN(c2nc3c(c(=O)n(C)c(=O)n3C)n2CCSc2nc3ccccc3o2)CC1 | -30.4 | 1.3 µM [falling, full curve] | 1.3 µM [falling, full curve, poor fit]
O=C(CSc1ncnc2c1nnn2Cc1ccccc1F)NCC1CCCO1 (stereo not drawn) | -0.215 | 32.6 µM [falling, single point] | 
Cc1ccc(S(=O)(=O)CCNC(=O)Cc2ccc(Cl)cc2)cc1 | 11.1 |  | 
Nc1ccc(-c2nc3ccccc3[nH]2)cc1 |  |  | 0.103 µM [rising, full curve, poor fit]
C/C=C(\C)C(=O)OC1c2c(ccc3ccc(=O)oc23)OC(C)(C)C1OC(C)=O (stereo not drawn) | -22.3 | 23.1 µM [falling, single point] | 
Cc1nc(NC(=O)CSc2ccc(-c3nc4ccccc4[nH]3)cn2)sc1C | -46.7 | 29.1 µM [falling, single point] | 29.1 µM [falling, single point]
O=C(COC(=O)c1c[nH]c(=O)[nH]c1=O)Nc1ccccc1F |  |  | 0.00517 µM [falling, full curve, poor fit]
CCCCCc1nnc(NC(=O)C2COc3ccccc3O2)s1 (stereo not drawn) | 20.9 |  | 
Nc1ccc(Sc2nc3ccccc3[nH]2)cc1 | 31.3 | 6.51 µM [rising, single point] | 0.82 µM [rising, full curve]

— PubChem BioAssay AID2685 (National Center for Advancing Translational Sciences (NCATS), 2010)
